Results: paper PMC10272136, “Molecular mechanisms of Holliday junction branch migration catalyzed by an asymmetric RuvB hexamer” (Nature Communications, 2022)
No constants are given. Whether binding was seen depends on the method and setting.

Target: Thermus thermophilus RuvB (Thermus thermophilus) (UniProt Q5SL87)
Test: SEC; RuvB alone, without DNA; Superdex 200 10/300 GL Increase, 20 mM Tris-HCl pH 7.5, 150 mM NaCl; both purified

B1: Thermus thermophilus RuvB (enzyme, UniProt Q5SL87 1-324, looked up)
chain: MEDLALRPKTLDEYIGQERLKQKLRVYLEAAKARKEPLEHLLLFGPPGLGKTTLAHVIAHELGVNLRVTSGPAIEKPGDLAAILANSLEEGDILFIDEIHRLSRQAEEHLYPAMEDFVMDIVIGQGPAARTIRLELPRFTLIGATTRPGLITAPLLSRFGIVEHLEYYTPEELAQGVMRDARLLGVRITEEAALEIGRRSRGTMRVAKRLFRRVRDFAQVAGEEVITRERALEALAALGLDELGLEKRDREILEVLILRFGGGPVGLATLATALSEDPGTLEEVHEPYLIRQGLLKRTPRGRVATELAYRHLGYPPPVGPLLEP
notes: RuvB, Holliday junction branch migration ATPase (AAA+), Thermus thermophilus; printed MW 35,973; Purified RuvB carried endogenous ADP (native mass spectrometry); It forms the hexamer and dodecamer only in the sample with DNA and ATPγS; also called T. thermophilus RuvB; RuvB protomer; source: E. coli BL21(DE3) RipL, purified (heat step at 55 °C, Ni-NTA, Superdex 200 gel filtration)
binding: no binding (condition: RuvB alone, without DNA)
